{
  "source": "patent US8450374B2",
  "about": "“Pan-antagonists for the androgen receptor and androgen receptor mutants associated with anti-androgen withdrawal” (priority 2009, dated 2013)",
  "tested_on": "prostate tissues",
  "experiment": "Prostate apoptosis by TUNEL after short-term IP treatment (PLM6, bicalutamide)",
  "assay_type": "in vivo, Male C57BI/6 mice",
  "conditions": "25 mg/kg/day IP, day 3 and day 5, TUNEL",
  "experimental": "FIG. 6. […] Single 20× magnification fields from each of four lobes of mouse prostate glands were counted in each mouse. […] Data are expressed as means±SE. Statistics were determined using two-tailed, paired t-tests assuming data from each lobe was independent.\nProstates were removed from 3 day and 5 day treatment groups, sectioned and stained by H&E and TUNEL.\nPLM6-induced glandular apoptosis was 19.9±2.8 cells per 20× field on day 3 (P=0.0064) that reached 24.63±3 cells per 20× field on day 5 (P=2.59×10^−4) (FIG. 7). Prostates from treated and control mice were isolated, fixed sectioned and stained TUNEL (BrdU). Sections were then evaluated by visible light microscopy and counting.",
  "note": "For at least one compound, name, drawing or mass did not settle the structure.",
  "data": [
    {"smiles": "CC(O)(CS(=O)(=O)c1ccc(F)cc1)C(=O)Nc1ccc(C#N)c(C(F)(F)F)c1", "note": "(stereo not shown) [Bicalutamide, bicalutamide]", "values": [
      {"measurement": "Apoptosis in prostate compared to sham-operated controls", "result": "significant increase in apoptosis"}
    ]}
  ]
}
